Experimental data taken from the supplement of paper PMC10032668.
Some of the results follow. Only hits are listed; about a third recur on repeated control peptides.

Protein sequences, listed by entry. Tags and fused reporters are not part of them.
LANCL1, O43813, UniProt O43813, whole entry: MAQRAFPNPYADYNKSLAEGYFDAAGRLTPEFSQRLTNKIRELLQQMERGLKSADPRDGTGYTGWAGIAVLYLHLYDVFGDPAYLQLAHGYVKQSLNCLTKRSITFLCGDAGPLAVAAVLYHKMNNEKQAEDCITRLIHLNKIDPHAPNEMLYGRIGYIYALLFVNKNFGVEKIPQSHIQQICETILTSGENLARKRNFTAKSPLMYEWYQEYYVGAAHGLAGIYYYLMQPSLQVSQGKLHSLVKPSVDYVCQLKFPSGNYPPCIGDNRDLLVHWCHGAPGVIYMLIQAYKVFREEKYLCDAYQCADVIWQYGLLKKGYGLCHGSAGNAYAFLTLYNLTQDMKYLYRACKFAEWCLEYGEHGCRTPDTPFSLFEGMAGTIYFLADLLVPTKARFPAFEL
CNOT1, A5YKK6, UniProt A5YKK6, whole entry: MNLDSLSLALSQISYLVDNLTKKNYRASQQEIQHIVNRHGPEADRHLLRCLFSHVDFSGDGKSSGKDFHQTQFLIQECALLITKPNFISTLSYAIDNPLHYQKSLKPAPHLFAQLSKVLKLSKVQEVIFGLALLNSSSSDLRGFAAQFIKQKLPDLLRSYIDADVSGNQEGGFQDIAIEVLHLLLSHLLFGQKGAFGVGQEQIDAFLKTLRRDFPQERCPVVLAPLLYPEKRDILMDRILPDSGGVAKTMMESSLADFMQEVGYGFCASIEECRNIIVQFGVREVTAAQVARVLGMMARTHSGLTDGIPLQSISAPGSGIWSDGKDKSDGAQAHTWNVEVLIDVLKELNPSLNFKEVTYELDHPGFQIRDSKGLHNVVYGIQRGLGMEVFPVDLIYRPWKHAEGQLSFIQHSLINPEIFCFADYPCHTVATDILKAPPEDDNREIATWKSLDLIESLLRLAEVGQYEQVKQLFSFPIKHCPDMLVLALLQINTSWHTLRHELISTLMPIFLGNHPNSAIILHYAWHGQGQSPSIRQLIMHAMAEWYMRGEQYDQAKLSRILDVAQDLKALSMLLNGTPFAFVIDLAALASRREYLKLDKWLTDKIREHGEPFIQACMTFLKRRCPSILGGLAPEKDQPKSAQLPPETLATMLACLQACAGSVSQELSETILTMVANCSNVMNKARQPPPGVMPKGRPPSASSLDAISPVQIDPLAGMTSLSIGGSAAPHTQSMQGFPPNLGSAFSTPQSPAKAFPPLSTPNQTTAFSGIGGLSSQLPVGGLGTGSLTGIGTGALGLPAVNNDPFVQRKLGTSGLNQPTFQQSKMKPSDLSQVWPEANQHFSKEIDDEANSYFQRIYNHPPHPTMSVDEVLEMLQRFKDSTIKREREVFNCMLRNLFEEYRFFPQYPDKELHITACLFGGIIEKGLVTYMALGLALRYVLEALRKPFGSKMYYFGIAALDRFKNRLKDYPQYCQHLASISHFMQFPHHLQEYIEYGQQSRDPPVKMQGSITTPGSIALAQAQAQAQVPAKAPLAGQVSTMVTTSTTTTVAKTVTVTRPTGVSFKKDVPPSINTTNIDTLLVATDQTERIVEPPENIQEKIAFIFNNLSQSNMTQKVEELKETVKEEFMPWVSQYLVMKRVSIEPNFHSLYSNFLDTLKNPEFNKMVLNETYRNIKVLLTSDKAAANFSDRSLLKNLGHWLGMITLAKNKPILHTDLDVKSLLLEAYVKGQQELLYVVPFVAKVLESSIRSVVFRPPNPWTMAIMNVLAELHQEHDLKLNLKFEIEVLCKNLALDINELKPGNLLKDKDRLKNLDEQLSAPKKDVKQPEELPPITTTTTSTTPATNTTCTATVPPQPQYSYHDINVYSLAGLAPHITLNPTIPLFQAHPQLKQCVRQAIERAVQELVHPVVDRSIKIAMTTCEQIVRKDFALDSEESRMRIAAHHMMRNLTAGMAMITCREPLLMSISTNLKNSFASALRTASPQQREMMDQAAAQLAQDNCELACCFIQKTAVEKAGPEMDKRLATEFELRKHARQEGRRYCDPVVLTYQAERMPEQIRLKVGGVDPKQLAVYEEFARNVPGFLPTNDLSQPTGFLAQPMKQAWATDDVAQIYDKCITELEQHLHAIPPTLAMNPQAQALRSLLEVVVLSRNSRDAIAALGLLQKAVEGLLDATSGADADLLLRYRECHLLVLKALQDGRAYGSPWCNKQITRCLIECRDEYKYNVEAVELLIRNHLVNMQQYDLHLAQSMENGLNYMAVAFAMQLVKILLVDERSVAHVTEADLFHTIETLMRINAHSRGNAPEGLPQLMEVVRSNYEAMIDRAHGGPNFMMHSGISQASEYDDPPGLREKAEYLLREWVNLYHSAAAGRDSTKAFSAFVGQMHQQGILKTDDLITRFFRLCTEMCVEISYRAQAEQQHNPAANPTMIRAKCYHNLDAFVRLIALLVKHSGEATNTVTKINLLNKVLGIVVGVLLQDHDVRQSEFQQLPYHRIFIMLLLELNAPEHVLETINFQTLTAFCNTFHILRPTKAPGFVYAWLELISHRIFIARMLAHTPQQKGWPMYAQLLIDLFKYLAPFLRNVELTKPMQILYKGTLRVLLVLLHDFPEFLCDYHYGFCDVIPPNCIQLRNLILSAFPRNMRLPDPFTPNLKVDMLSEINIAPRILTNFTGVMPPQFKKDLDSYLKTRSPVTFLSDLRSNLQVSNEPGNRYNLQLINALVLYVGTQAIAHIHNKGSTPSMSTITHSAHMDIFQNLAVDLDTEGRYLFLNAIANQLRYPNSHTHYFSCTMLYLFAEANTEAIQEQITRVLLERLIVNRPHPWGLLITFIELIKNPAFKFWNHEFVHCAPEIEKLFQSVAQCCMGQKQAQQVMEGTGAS
PDHB, P11177, UniProt P11177, whole entry: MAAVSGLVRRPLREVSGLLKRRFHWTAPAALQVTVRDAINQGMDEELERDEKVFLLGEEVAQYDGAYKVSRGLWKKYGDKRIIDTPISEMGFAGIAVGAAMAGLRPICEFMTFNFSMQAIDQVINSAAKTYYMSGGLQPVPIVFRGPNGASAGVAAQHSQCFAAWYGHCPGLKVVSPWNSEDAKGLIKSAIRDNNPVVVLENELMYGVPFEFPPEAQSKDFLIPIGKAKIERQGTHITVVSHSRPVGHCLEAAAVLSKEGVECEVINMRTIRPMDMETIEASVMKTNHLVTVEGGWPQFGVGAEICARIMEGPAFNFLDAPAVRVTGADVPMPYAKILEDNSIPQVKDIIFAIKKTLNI
SNRPC, P09234, UniProt P09234, whole entry: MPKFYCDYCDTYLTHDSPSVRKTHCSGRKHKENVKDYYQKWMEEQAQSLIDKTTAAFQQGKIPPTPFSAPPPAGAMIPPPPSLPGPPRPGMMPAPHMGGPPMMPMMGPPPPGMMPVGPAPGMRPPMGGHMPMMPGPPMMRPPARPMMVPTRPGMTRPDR
DDX39B, Q13838, UniProt Q13838, whole entry: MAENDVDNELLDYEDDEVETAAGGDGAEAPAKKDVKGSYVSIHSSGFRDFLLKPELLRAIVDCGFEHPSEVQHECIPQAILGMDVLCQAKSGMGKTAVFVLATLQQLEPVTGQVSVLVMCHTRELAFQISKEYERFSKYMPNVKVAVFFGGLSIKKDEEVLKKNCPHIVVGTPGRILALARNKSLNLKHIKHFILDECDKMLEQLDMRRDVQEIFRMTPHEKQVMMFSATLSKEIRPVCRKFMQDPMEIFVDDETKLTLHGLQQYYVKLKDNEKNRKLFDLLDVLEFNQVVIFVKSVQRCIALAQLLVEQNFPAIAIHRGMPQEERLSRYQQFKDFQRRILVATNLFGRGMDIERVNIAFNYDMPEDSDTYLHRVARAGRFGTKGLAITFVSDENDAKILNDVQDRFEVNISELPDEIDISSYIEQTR
ENO1, P06733, UniProt P06733, whole entry: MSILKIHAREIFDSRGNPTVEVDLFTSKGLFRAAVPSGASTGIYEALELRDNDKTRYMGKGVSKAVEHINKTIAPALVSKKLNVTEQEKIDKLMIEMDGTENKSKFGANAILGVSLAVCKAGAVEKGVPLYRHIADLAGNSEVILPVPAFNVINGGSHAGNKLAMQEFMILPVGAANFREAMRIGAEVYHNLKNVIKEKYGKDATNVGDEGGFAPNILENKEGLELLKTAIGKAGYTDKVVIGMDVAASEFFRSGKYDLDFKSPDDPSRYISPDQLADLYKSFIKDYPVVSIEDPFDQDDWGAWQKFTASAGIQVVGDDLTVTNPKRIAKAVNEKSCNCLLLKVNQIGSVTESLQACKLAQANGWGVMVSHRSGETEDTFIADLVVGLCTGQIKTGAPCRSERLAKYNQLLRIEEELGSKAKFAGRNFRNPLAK
NASP, P49321, UniProt P49321, whole entry: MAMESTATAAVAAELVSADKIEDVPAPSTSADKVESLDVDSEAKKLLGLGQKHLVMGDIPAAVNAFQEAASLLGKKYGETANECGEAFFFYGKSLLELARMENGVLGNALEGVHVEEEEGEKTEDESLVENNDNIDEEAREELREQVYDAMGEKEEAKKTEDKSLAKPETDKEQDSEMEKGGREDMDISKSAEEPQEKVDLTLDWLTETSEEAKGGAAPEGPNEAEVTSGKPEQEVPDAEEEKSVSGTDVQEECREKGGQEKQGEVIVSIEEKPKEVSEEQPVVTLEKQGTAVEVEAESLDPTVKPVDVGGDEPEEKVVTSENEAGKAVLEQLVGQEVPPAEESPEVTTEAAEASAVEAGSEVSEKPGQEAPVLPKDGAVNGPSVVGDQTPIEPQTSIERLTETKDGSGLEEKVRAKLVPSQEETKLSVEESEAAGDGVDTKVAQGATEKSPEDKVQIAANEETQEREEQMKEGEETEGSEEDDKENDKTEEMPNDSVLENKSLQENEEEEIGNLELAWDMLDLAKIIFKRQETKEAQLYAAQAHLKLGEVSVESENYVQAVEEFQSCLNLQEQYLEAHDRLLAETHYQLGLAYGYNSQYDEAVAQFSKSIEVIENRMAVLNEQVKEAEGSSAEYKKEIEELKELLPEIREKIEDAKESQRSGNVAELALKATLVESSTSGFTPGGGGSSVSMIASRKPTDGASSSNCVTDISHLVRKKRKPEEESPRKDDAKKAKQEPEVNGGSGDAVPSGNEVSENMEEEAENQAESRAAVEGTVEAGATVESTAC
NFRKB, Q6P4R8, UniProt Q6P4R8, whole entry: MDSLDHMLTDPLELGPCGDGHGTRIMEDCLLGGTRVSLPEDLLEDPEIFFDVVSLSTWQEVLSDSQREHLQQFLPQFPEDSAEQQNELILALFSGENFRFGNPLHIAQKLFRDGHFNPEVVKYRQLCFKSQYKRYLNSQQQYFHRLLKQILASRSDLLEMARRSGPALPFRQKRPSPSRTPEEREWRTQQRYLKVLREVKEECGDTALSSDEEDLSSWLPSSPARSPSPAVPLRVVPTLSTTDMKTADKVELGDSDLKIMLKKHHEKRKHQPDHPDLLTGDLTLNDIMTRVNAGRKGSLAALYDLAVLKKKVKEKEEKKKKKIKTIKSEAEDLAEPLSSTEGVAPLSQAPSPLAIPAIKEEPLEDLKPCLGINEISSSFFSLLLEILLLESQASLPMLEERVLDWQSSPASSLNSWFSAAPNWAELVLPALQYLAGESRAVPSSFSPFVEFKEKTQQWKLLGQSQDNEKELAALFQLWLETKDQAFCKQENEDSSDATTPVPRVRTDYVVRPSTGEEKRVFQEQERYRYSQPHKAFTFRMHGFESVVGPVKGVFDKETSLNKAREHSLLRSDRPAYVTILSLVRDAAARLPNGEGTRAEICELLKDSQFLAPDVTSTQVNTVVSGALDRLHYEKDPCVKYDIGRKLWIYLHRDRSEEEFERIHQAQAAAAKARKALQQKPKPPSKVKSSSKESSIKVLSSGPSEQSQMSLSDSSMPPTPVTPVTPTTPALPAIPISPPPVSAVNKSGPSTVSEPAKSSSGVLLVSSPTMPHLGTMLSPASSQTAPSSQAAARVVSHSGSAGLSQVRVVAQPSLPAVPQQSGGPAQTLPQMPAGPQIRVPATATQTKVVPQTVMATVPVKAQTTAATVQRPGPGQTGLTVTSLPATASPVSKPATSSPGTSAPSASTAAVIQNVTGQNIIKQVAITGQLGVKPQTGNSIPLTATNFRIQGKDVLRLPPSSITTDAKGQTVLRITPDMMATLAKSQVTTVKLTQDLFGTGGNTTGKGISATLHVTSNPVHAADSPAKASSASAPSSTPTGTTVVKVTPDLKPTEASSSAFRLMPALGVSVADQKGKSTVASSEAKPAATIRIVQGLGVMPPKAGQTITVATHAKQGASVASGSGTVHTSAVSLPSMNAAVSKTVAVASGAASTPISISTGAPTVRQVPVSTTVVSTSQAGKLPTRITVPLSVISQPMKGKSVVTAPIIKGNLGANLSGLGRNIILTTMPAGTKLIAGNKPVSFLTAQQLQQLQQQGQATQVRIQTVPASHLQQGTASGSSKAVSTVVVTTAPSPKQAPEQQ
RFC2, P35250, UniProt P35250, whole entry: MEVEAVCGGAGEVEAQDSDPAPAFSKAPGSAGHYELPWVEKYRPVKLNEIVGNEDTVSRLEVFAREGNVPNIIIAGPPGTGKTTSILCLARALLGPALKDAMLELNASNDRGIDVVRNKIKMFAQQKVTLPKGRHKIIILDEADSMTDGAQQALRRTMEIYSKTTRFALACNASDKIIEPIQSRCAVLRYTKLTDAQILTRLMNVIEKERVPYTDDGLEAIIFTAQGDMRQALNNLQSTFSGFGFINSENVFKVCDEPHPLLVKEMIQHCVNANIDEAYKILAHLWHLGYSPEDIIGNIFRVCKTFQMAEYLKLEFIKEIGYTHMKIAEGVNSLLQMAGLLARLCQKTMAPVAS

Tests used:
Assay in all cases: PRISMA enrichment of interactor (LFQ) in peptide spot vs all other peptide spots (log2 fold change); higher = stronger / more specific binding of the interactor to the peptide
BMS1, Q14692 = target: BMS1, Q14692
Description: (§1)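 PRISMA: 15-aa overlapping tiles (offset 8 aa) of 60 microproteins, plus SOS1/GLUT1 control peptides, were spot-synthesized on cellulose membranes in triplicate. Membranes were incubated with benzonase-treated HEK293T lysate, and bound proteins were identified by LC-MS/MS with LFQ. Enrichment is the log2 fold change of each protein in one spot versus all other spots. Only interactors passing the significance cutoff are listed.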

CD81, P60033 = target: CD81, P60033
Description: as §1

DNAJB4, Q9UDY4 = target: DNAJB4, Q9UDY4
Description: as §1

FAM136A, Q96C01 = target: FAM136A, Q96C01
Description: as §1

FAM168A, Q92567 = target: FAM168A, Q92567
Description: as §1

HSD17B12, Q53GQ0 = target: HSD17B12, Q53GQ0
Description: as §1

LANCL1, O43813 = target: LANCL1, O43813
Description: as §1

MSH2, P43246 = target: MSH2, P43246
Description: as §1

SQSTM1, Q13501 = target: SQSTM1, Q13501
Description: as §1

TOMM70, O94826 = target: TOMM70, O94826
Description: as §1

VCP, P55072 = target: VCP, P55072
Description: as §1

BCOR, Q6W2J9 = target: BCOR, Q6W2J9
Description: as §1

BRIX1, Q8TDN6 = target: BRIX1, Q8TDN6
Description: as §1

CNOT1, A5YKK6 = target: CNOT1, A5YKK6
Description: as §1

DDX5, P17844 = target: DDX5, P17844
Description: as §1

DNAJA3, Q96EY1 = target: DNAJA3, Q96EY1
Description: as §1

GNPDA1, P46926 = target: GNPDA1, P46926
Description: as §1

HNRNPK, P61978 = target: HNRNPK, P61978
Description: as §1

LRRC47, Q8N1G4 = target: LRRC47, Q8N1G4
Description: as §1

LSG1, Q9H089 = target: LSG1, Q9H089
Description: as §1

MRPL11, Q9Y3B7 = target: MRPL11, Q9Y3B7
Description: as §1

MRPL21, Q7Z2W9 = target: MRPL21, Q7Z2W9
Description: as §1

MUC19, Q7Z5P9 = target: MUC19, Q7Z5P9
Description: as §1

PDHB, P11177 = target: PDHB, P11177
Description: as §1

BLMH, Q13867 = target: BLMH, Q13867
Description: as §1

EZH2, Q15910 = target: EZH2, Q15910
Description: as §1

GOLIM4, O00461 = target: GOLIM4, O00461
Description: as §1

LMF2, Q9BU23 = target: LMF2, Q9BU23
Description: as §1

NFS1, Q9Y697 = target: NFS1, Q9Y697
Description: as §1

NOC4L, Q9BVI4 = target: NOC4L, Q9BVI4
Description: as §1

RCN2, Q14257 = target: RCN2, Q14257
Description: as §1

RRP8, O43159 = target: RRP8, O43159
Description: as §1

TPX2, Q9ULW0 = target: TPX2, Q9ULW0
Description: as §1

USP15, Q9Y4E8 = target: USP15, Q9Y4E8
Description: as §1

WDR61, Q9GZS3 = target: WDR61, Q9GZS3
Description: as §1

BPTF, Q12830 = target: BPTF, Q12830
Description: as §1

CHMP1A, Q9HD42 = target: CHMP1A, Q9HD42
Description: as §1

CLNS1A, P54105 = target: CLNS1A, P54105
Description: as §1

MRPL1, Q9BYD6 = target: MRPL1, Q9BYD6
Description: as §1

NEFM, P07197 = target: NEFM, P07197
Description: as §1

NIBAN2, Q96TA1 = target: NIBAN2, Q96TA1
Description: as §1

PKP2, Q99959 = target: PKP2, Q99959
Description: as §1

SNRPC, P09234 = target: SNRPC, P09234
Description: as §1

UTP11, Q9Y3A2 = target: UTP11, Q9Y3A2
Description: as §1

BCAS2, O75934 = target: BCAS2, O75934
Description: as §1

CNOT2, Q9NZN8 = target: CNOT2, Q9NZN8
Description: as §1

COPB1, P53618 = target: COPB1, P53618
Description: as §1

DDX39B, Q13838 = target: DDX39B, Q13838
Description: as §1

ENO1, P06733 = target: ENO1, P06733
Description: as §1

ERAL1, O75616 = target: ERAL1, O75616
Description: as §1

NAMPT, P43490 = target: NAMPT, P43490
Description: as §1

NASP, P49321 = target: NASP, P49321
Description: as §1

NFRKB, Q6P4R8 = target: NFRKB, Q6P4R8
Description: as §1

PAF1, Q8N7H5 = target: PAF1, Q8N7H5
Description: as §1

POLR2J3, Q9H1A7 = target: POLR2J3, Q9H1A7
Description: as §1

POP1, Q99575 = target: POP1, Q99575
Description: as §1

RPS17, P08708 = target: RPS17, P08708
Description: as §1

RRP1B, Q14684 = target: RRP1B, Q14684
Description: as §1

SMARCA5, O60264 = target: SMARCA5, O60264
Description: as §1

TOR1AIP1, Q5JTV8 = target: TOR1AIP1, Q5JTV8
Description: as §1

XPO7, Q9UIA9 = target: XPO7, Q9UIA9
Description: as §1

XRCC6, P12956 = target: XRCC6, P12956
Description: as §1

CD2BP2, O95400 = target: CD2BP2, O95400
Description: as §1

CHTF18, Q8WVB6 = target: CHTF18, Q8WVB6
Description: as §1

FAM133B, Q5BKY9 = target: FAM133B, Q5BKY9
Description: as §1

FBXO45, P0C2W1 = target: FBXO45, P0C2W1
Description: as §1

GATAD2A, Q86YP4 = target: GATAD2A, Q86YP4
Description: as §1

HOXD13, P35453 = target: HOXD13, P35453
Description: as §1

LEO1, Q8WVC0 = target: LEO1, Q8WVC0
Description: as §1

MKRN2, Q9H000 = target: MKRN2, Q9H000
Description: as §1

MPST, P25325 = target: MPST, P25325
Description: as §1

NUFIP2, Q7Z417 = target: NUFIP2, Q7Z417
Description: as §1

RFC2, P35250 = target: RFC2, P35250
Description: as §1

SGTA, O43765 = target: SGTA, O43765
Description: as §1

SNX2, O60749 = target: SNX2, O60749
Description: as §1

B1: EBAG9 (peptide)
chain: DWAVGYRPGKHAASK
- PRISMA enrichment of interactor (log2) (BMS1, Q14692): 5.41
- PRISMA enrichment of interactor (log2) (CD81, P60033): 3.7
- PRISMA enrichment of interactor (log2) (DNAJB4, Q9UDY4): 4.44
- PRISMA enrichment of interactor (log2) (FAM136A, Q96C01): 4.36
- PRISMA enrichment of interactor (log2) (FAM168A, Q92567): 4.71
- PRISMA enrichment of interactor (log2) (HSD17B12, Q53GQ0): 7.02
- PRISMA enrichment of interactor (log2) (LANCL1, O43813): 5.26
- PRISMA enrichment of interactor (log2) (MSH2, P43246): 5.22
- PRISMA enrichment of interactor (log2) (SQSTM1, Q13501): 3.96
- PRISMA enrichment of interactor (log2) (TOMM70, O94826): 5.93
- PRISMA enrichment of interactor (log2) (VCP, P55072): 4.68

B2: MRPL33 (peptide)
chain: RLREKLTLLHYDPVV
- PRISMA enrichment of interactor (log2) (BCOR, Q6W2J9): 4.89
- PRISMA enrichment of interactor (log2) (BRIX1, Q8TDN6): 5.03
- PRISMA enrichment of interactor (log2) (CNOT1, A5YKK6): 4.92
- PRISMA enrichment of interactor (log2) (DDX5, P17844): 4.53
- PRISMA enrichment of interactor (log2) (DNAJA3, Q96EY1): 4.91
- PRISMA enrichment of interactor (log2) (GNPDA1, P46926): 5.63
- PRISMA enrichment of interactor (log2) (HNRNPK, P61978): 4.53
- PRISMA enrichment of interactor (log2) (LRRC47, Q8N1G4): 3.9
- PRISMA enrichment of interactor (log2) (LSG1, Q9H089): 5.81
- PRISMA enrichment of interactor (log2) (MRPL11, Q9Y3B7): 8.75
- PRISMA enrichment of interactor (log2) (MRPL21, Q7Z2W9): 5.83
- PRISMA enrichment of interactor (log2) (MUC19, Q7Z5P9): 7.88
- PRISMA enrichment of interactor (log2) (PDHB, P11177): 4.4

B3: LINC00881_2 (peptide)
chain: MRNKREGAFPCAALG
- PRISMA enrichment of interactor (log2) (BLMH, Q13867): 4.89
- PRISMA enrichment of interactor (log2) (EZH2, Q15910): 3.96
- PRISMA enrichment of interactor (log2) (GOLIM4, O00461): 4.55
- PRISMA enrichment of interactor (log2) (LMF2, Q9BU23): 4.85
- PRISMA enrichment of interactor (log2) (NFS1, Q9Y697): 5.89
- PRISMA enrichment of interactor (log2) (NOC4L, Q9BVI4): 5.3
- PRISMA enrichment of interactor (log2) (RCN2, Q14257): 6.84
- PRISMA enrichment of interactor (log2) (RRP8, O43159): 3.71
- PRISMA enrichment of interactor (log2) (TPX2, Q9ULW0): 4.59
- PRISMA enrichment of interactor (log2) (USP15, Q9Y4E8): 5.64
- PRISMA enrichment of interactor (log2) (WDR61, Q9GZS3): 7.11

B4: RP11-620J15.3 (peptide)
chain: CLILKLKKLSWKTER
- PRISMA enrichment of interactor (log2) (BPTF, Q12830): 4.45
- PRISMA enrichment of interactor (log2) (CHMP1A, Q9HD42): 4.82
- PRISMA enrichment of interactor (log2) (CLNS1A, P54105): 5.09
- PRISMA enrichment of interactor (log2) (MRPL1, Q9BYD6): 4.36
- PRISMA enrichment of interactor (log2) (NEFM, P07197): 4.01
- PRISMA enrichment of interactor (log2) (NIBAN2, Q96TA1): 5.44
- PRISMA enrichment of interactor (log2) (PKP2, Q99959): 4.25
- PRISMA enrichment of interactor (log2) (SNRPC, P09234): 5.08
- PRISMA enrichment of interactor (log2) (UTP11, Q9Y3A2): 6.15

B5: ABR (peptide)
chain: CPRLLQPLLGLMGTG
- PRISMA enrichment of interactor (log2) (BCAS2, O75934): 4.89
- PRISMA enrichment of interactor (log2) (CNOT2, Q9NZN8): 7.93
- PRISMA enrichment of interactor (log2) (COPB1, P53618): 6.23
- PRISMA enrichment of interactor (log2) (DDX39B, Q13838): 7.37
- PRISMA enrichment of interactor (log2) (ENO1, P06733): 5.4
- PRISMA enrichment of interactor (log2) (ERAL1, O75616): 4.93
- PRISMA enrichment of interactor (log2) (NAMPT, P43490): 7.47
- PRISMA enrichment of interactor (log2) (NASP, P49321): 5.13
- PRISMA enrichment of interactor (log2) (NFRKB, Q6P4R8): 8.22
- PRISMA enrichment of interactor (log2) (PAF1, Q8N7H5): 7.38
- PRISMA enrichment of interactor (log2) (POLR2J3, Q9H1A7): 4.95
- PRISMA enrichment of interactor (log2) (POP1, Q99575): 9.95
- PRISMA enrichment of interactor (log2) (RPS17, P08708): 4.61
- PRISMA enrichment of interactor (log2) (RRP1B, Q14684): 4.44
- PRISMA enrichment of interactor (log2) (SMARCA5, O60264): 6.36
- PRISMA enrichment of interactor (log2) (TOR1AIP1, Q5JTV8): 6.66
- PRISMA enrichment of interactor (log2) (XPO7, Q9UIA9): 6.35
- PRISMA enrichment of interactor (log2) (XRCC6, P12956): 5.33

B6: SNHG16 (peptide)
chain: DGAVSLSFQSRKRIL
- PRISMA enrichment of interactor (log2) (BPTF, Q12830): 5.68
- PRISMA enrichment of interactor (log2) (CD2BP2, O95400): 4.32
- PRISMA enrichment of interactor (log2) (CHTF18, Q8WVB6): 4.06
- PRISMA enrichment of interactor (log2) (FAM133B, Q5BKY9): 4.45
- PRISMA enrichment of interactor (log2) (FBXO45, P0C2W1): 5.49
- PRISMA enrichment of interactor (log2) (GATAD2A, Q86YP4): 5.79
- PRISMA enrichment of interactor (log2) (HOXD13, P35453): 4.34
- PRISMA enrichment of interactor (log2) (LEO1, Q8WVC0): 5.24
- PRISMA enrichment of interactor (log2) (MKRN2, Q9H000): 4.27
- PRISMA enrichment of interactor (log2) (MPST, P25325): 4.44
- PRISMA enrichment of interactor (log2) (NEFM, P07197): 8.58
- PRISMA enrichment of interactor (log2) (NUFIP2, Q7Z417): 4.96
- PRISMA enrichment of interactor (log2) (POLR2J3, Q9H1A7): 5.06
- PRISMA enrichment of interactor (log2) (RFC2, P35250): 4.76
- PRISMA enrichment of interactor (log2) (SGTA, O43765): 5.08
- PRISMA enrichment of interactor (log2) (SNX2, O60749): 6.32
